Some entries share one result that the patent states for a list of compounds.
Tested on: membrane LIGHT (EL4-NC-LIGHT cells) stimulated IL-8 secretion from HT-29 cells
Assay: Inhibition of IL-8 secretion from HT-29 cells, EL4-NC-LIGHT cell assay
Assay type: cell-based, human
Conditions: IL-8 release from HT-29 cells; Table 13A

Row | Molecule | Affinity to membrane LIGHT versus soluble LIGHT by comparing the IC50's of inhibition [fold]
1 | 3B04: parental mouse anti-membrane LIGHT antibody, VL SEQ ID NO 1, VH SEQ ID NO 5; tested as chimeric human IgG4 mAb (antibody, listed as Homo sapiens, V domains shown) VH: QVQLQQPGAELVRPGASVTLSCKASGYTFTDYEMHWVKQTPVHGLEWIGEIDPETGDTAYSQKFKGKATLTADKSSSTAYMEFRSLTSEDSAVYYCSRETDYFFDYWGQGTTLTVSS VL: DIQMTQTPASLSASVGETVTITCGASENIYGALNWYQRKQGKSPQLLIYGATNLADGMSSRFSGSGSGRQYSLKISSLHPDDFATYYCQNVLTTPWTFGGGTKLEIKR | > 30
2 | 3D12: parental mouse anti-membrane LIGHT antibody, VL SEQ ID NO 41, VH SEQ ID NO 45; tested as chimeric human IgG4 mAb (antibody, listed as Homo sapiens, V domains shown) VH: QVQLQQPGAELVRPGASVTLSCKASDYTFTDSEIHWVKQTPVHGLEWIGEIDPETGGTAYNQKFKGKATLTADKSSSTAYMELRSLTSEDSAVYYCSRETDYFFDYWGQGTTLTVSS VL: DIQMTQSPASLSASVGETVTITCGASENIYGALNWYQRKQGKSPQLLIYGATNLADGMSSRFSGSGSGRQYSLKISSLHPDDVATYYCQNVLSTPWTFGGGTKLEIKR | > 30
3 | 2E08: parental anti-membrane LIGHT antibody, VL SEQ ID NO 81, VH SEQ ID NO 85; chimeric IgG4 mAb (antibody, listed as Homo sapiens, V domains shown) VH: QVQMKESGAELVRPGVSVKISCKGSGYTFTDYAIHWVKQSHAKTLEWIGVISTYYGDASYNQKFKGKATMTVDKSSSTAYMELARLTSDDSAIYYCARSRGEYGNYDAMDYWGQGTSVTVSS VL: DIVLTQSPASLAVSLGQRATISCKASQSVDYDGDSYMNWYQQKPGQPPKLLIYAASNLESGIPARFSGSGSGTDFTLNIHPVEEEDAATYYCQQSNEDPLTFGAGTKLELK | > 30
4 | 3A07: parental anti-membrane LIGHT antibody, VL SEQ ID NO 97, VH SEQ ID NO 101; chimeric IgG4 mAb (antibody, listed as Homo sapiens, V domains shown) VH: QVQLQQSGAELVRPGAPVTLSCKASDYTFTDSEIHWVKQTPVHGLEWIGEIDPETGGTAYNQKFKGKATLTADKSSSTAYMELRSLTSEDSAVYYCSRETDYFFDYWGQGTTLTVSS VL: ENVLTQSPAIMSASPGEKVTMTCSASSSVSYMYWYQQRPGSSPRLLIYDTSNLASGVPVRFSGSGSGTSYSLTISRMEAEDAATYYCQQWSSYPLTFGSGTKLEIK | > 30
5 | 3C10: parental anti-membrane LIGHT antibody, VL SEQ ID NO 89, VH SEQ ID NO 93; chimeric IgG4 mAb (antibody, listed as Homo sapiens, V domains shown) VH: EVQLQQSGAELVRPGASVTLSCKASDYTFTDSEIHWVKQTPVHGLEWIGEIDPETGGTAYNQKFKGKATLTADKSSSTAYMELRSLTSEDSAVYYCSRETDYFFDYWGQGTTLTVSS VL: DVVMTQTPAIMSASPGEKVTMTCSASSSVSYMYWYQQKPGSSPRLLIYDTSNLASGVPVRFSGSGSGTSYSLTISRMEAEDAATYYCQQWSSYPLTFGAGTKLELK | > 30

Source: patent US11312781B2, “Antigen binding molecules that bind LIGHT” (Capella Bioscience Ltd., priority 2018, dated 2022)
